Data from article PMC4825019.
Results are given in words; binding and its absence hold for the method and conditions named. Binding seen in cells or lysates may run through a third protein. A result given as binding can be weak or reduced; the word gives no strength.

Sequences of proteins named here, by UniProt entry; tags and fusion partners are left off.
UniProt Q62277: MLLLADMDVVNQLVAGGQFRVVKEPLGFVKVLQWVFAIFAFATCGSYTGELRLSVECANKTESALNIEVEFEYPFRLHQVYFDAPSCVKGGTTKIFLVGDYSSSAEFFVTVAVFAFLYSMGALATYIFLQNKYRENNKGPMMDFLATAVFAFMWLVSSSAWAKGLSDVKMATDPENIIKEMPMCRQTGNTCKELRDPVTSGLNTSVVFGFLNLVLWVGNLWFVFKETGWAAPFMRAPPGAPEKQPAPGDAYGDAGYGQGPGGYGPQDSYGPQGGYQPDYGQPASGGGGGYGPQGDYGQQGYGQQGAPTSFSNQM
UniProt P61264: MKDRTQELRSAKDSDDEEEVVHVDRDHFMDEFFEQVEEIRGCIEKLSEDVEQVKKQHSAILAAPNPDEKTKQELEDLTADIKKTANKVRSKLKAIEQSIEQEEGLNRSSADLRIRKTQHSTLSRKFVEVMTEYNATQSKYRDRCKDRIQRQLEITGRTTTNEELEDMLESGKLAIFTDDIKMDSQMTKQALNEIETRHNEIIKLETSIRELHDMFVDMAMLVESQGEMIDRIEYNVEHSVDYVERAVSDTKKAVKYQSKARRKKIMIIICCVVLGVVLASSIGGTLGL
UniProt Q91ZZ3: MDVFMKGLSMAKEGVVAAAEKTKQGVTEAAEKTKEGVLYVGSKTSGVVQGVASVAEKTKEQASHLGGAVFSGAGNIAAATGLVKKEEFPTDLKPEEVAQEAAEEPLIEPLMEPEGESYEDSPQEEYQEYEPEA

Key:
Assay in all cases: co-IP; reverse co-IP under native conditions: protein G-Sepharose with 4 μg antibody against the partner, 1 mg wild-type mouse brain lysate, overnight at 4 °C; blot probed with an anti-Tau antibody; normal IgG as negative control
[1] = molecular target: mitochondrial creatine kinase U-type (endogenous) (mouse (endogenous in C57BL/6 brain)) (UniProt P30275)
[2] = molecular target: synapsin 1 (endogenous) (mouse (endogenous in C57BL/6 brain)) (UniProt O88935)
[3] = molecular target: T1, synaptogyrin-3 (endogenous) (mouse (endogenous in C57BL/6 brain)) (UniProt Q8R191)
T1 sequence: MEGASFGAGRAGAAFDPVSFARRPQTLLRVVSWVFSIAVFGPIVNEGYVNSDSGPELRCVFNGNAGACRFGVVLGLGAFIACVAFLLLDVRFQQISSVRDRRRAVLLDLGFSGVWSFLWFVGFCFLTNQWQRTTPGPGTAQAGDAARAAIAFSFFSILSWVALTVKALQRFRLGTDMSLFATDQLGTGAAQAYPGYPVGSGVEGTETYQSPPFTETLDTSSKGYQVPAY

[4] = molecular target: synaptophysin (endogenous) (mouse (endogenous in C57BL/6 brain)) (UniProt Q62277)
[5] = molecular target: syntaxin 1B (endogenous) (mouse (endogenous in C57BL/6 brain)) (UniProt P61264)
[6] = molecular target: β-synuclein (endogenous) (mouse (endogenous in C57BL/6 brain)) (UniProt Q91ZZ3)

Measured: binding

Tau (total Tau of adult mouse brain) (from UniProt P10637-2)
binds: [1] | [2] | [3] | [4] | [5] | [6]
